Test results taken from PubChem BioAssay (EPA / NIEHS).
Inconclusive results, whose numbers are uncertain, are shown with a selection of clear calls. Where the call is inconclusive, the potency comes from a doubtful curve fit. Active and inactive are the calls of the source. How the source made its calls: active means hit-call score of the fitted dose curve at least 0.9, where 1 is the maximum; inconclusive means response in the unintended direction; inactive means score below 0.9.

Assay: Tanguay_ZF_120hpf_PFIN_legacy: (Legacy) Oregon State University Tanguay Lab 120 Hour Post-fertilization zebrafish Assay for Pectoral Fin Malformation (AID 2283648);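 further: each larva judged yes or no for fin defect by brightfield with dead larvae skipped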
Method in brief: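 Dechorionated Tropical 5D wild-type zebrafish embryos, one per well, statically exposed from 6 to 120 hpf at 28C with 0.64% DMSO final. Pectoral fin malformation scored present/absent by brightfield at 120 hpf; not scored in dead embryos.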
For OCC(CO)n1cnc(-c2ccc(F)cc2)c1-c1ccnc(Oc2ccccc2)n1, the AC50 was inconclusive: 16.1 µM. In the case of CN(C)CCOC(c1ccccc1)c1ccccc1, the AC50 is reported as inconclusive: 202 µM. In the case of Cn1cnc([N+](=O)[O-])c1Sc1ncnc2nc[nH]c12, the AC50 is reported as inconclusive: 0.00907 µM.

Assay: Tanguay_ZF_120hpf_CFIN_legacy: (Legacy) Oregon State University Tanguay Lab 120 Hour Post-fertilization zebrafish Assay for Caudal Fin Malformation (AID 2283649)
Method in brief: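 Tropical 5D wild-type embryos, dechorionated with pronase at 4 hpf, were placed singly in wells at 6 hpf and statically exposed to compound at 28C until 120 hpf (0.64% DMSO). Caudal fin malformation was scored present/absent by brightfield microscopy.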
With C=CN1CCCC1=O the AC50 was inconclusive: 17.6 µM. With c1ccc2c(c1)-c1cccc3c1c-2cc1ccccc13 the outcome was “inactive”. With CN(C)CCOC(c1ccccc1)c1ccccc1 the AC50 was active: 14.1 µM. For O=C1CN(N=Cc2ccc([N+](=O)[O-])o2)C(=O)N1, the AC50 was inconclusive: 101 µM. With CCO[Si](CCCNC(N)=O)(OCC)OCC the AC50 was inconclusive: 179 µM. In the case of C[C@]12CC[C@@H]3c4ccc(O)cc4C[C@@H](CCCCCCCCCS(=O)CCCC(F)(F)C(F)(F)F)[C@H]3[C@@H]1CC[C@@H]2O (some centres undefined), the AC50 is reported as inconclusive: 61.3 µM. With CCCCCCCCO the outcome was “inactive”. In the case of Cc1cccc([N+](=O)[O-])c1C, the outcome is reported as “inactive”. With CCC(=C(c1ccc(O)cc1)c1ccc(OCCN(C)C)cc1)c1ccccc1 the AC50 was inconclusive: 2.84 µM. In the case of COC(=O)CC(=O)OC, the AC50 is reported as inconclusive: 71.5 µM.

Assay: Tanguay_ZF_120hpf_PIG_legacy: (Legacy) Oregon State University Tanguay Lab 120 Hour Post-fertilization zebrafish Assay for Pigmentation Malformation (AID 2283650)
Method in brief: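 Dechorionated Tropical 5D wild-type embryos, one per well from 6 hpf, statically exposed at 28C in the dark until 120 hpf, 0.64% DMSO final. Pigmentation scored present/absent by brightfield microscopy; dead embryos not scored; fitted versus DMSO.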
In the case of C[C@]12C=CC(=O)C=C1CC[C@@H]1[C@@H]2C(=O)C[C@@]2(C)[C@H]1CC[C@]2(O)C(=O)CO, the AC50 is reported as inconclusive: 29.3 µM. For O=C(c1ccc(OCCN2CCCCC2)cc1)c1c(-c2ccc(O)cc2)sc2cc(O)ccc12, the AC50 was inconclusive: 176 µM. In the case of CCOC(N)=O, the outcome is reported as “inactive”. For O=C1CN(N=Cc2ccc([N+](=O)[O-])o2)C(=O)N1, the AC50 was inconclusive: 71.8 µM. With CCC(C)(C)C(=O)O[C@H]1C[C@@H](C)C=C2C=C[C@H](C)[C@H](CC[C@@H]3C[C@@H](O)CC(=O)O3)[C@H]21 the AC50 was active: 0.666 µM. In the case of O=C(O)c1ccccc1-n1cc(C(=O)O)c(=O)c2cc(Nc3c(F)cc(F)cc3Cl)c(Cl)cc21, the AC50 is reported as inconclusive: 3.5 µM. For C[C@]12CC[C@@H]3c4ccc(O)cc4C[C@@H](CCCCCCCCCS(=O)CCCC(F)(F)C(F)(F)F)[C@H]3[C@@H]1CC[C@@H]2O (some centres undefined), the outcome was “inactive”. In the case of COc1ccc2sc(C(=O)Nc3nnn[nH]3)c(OC(C)C)c2c1, the AC50 is reported as inconclusive: 45.4 µM. In the case of O=C(O)c1ccc2c(c1)nc(C(=O)NC1CCN(C3CC3)CC1)n2Cc1cc(-c2ccc(Cl)s2)on1, the outcome is reported as “inactive”. In the case of Cn1cnc([N+](=O)[O-])c1Sc1ncnc2nc[nH]c12, the AC50 is reported as inconclusive: 0.112 µM. For N[C@@H](Cc1cc(I)c(Oc2ccc(O)c(I)c2)c(I)c1)C(=O)O, the AC50 was active: 0.00051 µM. For CCC(=C(c1ccc(O)cc1)c1ccc(OCCN(C)C)cc1)c1ccccc1, the AC50 was inconclusive: 82.5 µM. For CCCCCCCCN(C)CCCCCCCC, the AC50 was inconclusive: 106 µM. For COC(=O)CC(=O)OC, the AC50 was inconclusive: 32.5 µM.

Assay: Tanguay_ZF_120hpf_CIRC_legacy: (Legacy) Oregon State University Tanguay Lab 120 Hour Post-fertilization zebrafish Assay for Circulatory Malformation (AID 2283651)
Method in brief: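 Read-out: presence or absence of circulatory malformation at 120 hpf, scored by brightfield microscopy, fitted in the gain-of-signal direction against DMSO baseline. Wild-type 5D larvae were exposed from 6 hpf after enzymatic chorion removal.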
In the case of C=CN1CCCC1=O, the AC50 is reported as inconclusive: 4.55 µM. For c1ccc2c(c1)-c1cccc3c1c-2cc1ccccc13, the outcome was “inactive”. In the case of CCCCCCCCOc1ccc(C(=O)c2ccccc2)c(O)c1, the AC50 is reported as inconclusive: 4.97 µM. In the case of CNCc1cc(F)ccc1Oc1ccc(Cl)c(Cl)c1, the AC50 is reported as inconclusive: 201 µM. With CN(C)CCOC(c1ccccc1)c1ccccc1 the AC50 was inconclusive: 71.7 µM. With CCCCCCCCO the AC50 was inconclusive: 15.5 µM. In the case of Cc1cccc([N+](=O)[O-])c1C, the outcome is reported as “inactive”. For N[C@@H](Cc1cc(I)c(Oc2ccc(O)c(I)c2)c(I)c1)C(=O)O, the outcome was “inactive”. With CCC(C)N(C)C(=O)c1cc2ccccc2c(-c2ccccc2Cl)n1 (centres undefined) the outcome was “inactive”.

Assay: Tanguay_ZF_120hpf_SWIM_legacy: (Legacy) Oregon State University Tanguay Lab 120 Hour Post-fertilization zebrafish Assay for Swim Bladder Malformation (AID 2283654);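 further: swim bladder malformation in each larva scored yes or no under brightfield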
Method in brief: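 Dechorionated wild-type Tropical 5D zebrafish embryos, one per well from 6 hpf, were statically exposed at 28C until 120 hpf in 0.64% DMSO. Swim bladder malformation scored as present/absent by brightfield microscopy; not scored in dead larvae.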
With O=C(c1ccc(OCCN2CCCCC2)cc1)c1c(-c2ccc(O)cc2)sc2cc(O)ccc12 the AC50 was inconclusive: 162 µM. With N#C[C@@H]1CC(F)(F)CN1C(=O)CNC1CC2CCC(C1)N2c1ncccn1 (some centres undefined) the AC50 was inconclusive: 25.2 µM. For CCOc1ccc2[nH]cc(C(=O)NCc3ccccc3)c(=O)c2n1, the AC50 was inconclusive: 6.48 µM. In the case of COc1ccc(S(=O)(=O)N2C(=O)[C@@](c3ccccc3OC)(N3C[C@H](O)C[C@H]3C(=O)N(C)C)c3cc(Cl)ccc32)c(OC)c1, the AC50 is reported as inconclusive: 12.8 µM. For Cc1ccc(C(C)C)cc1, the outcome was “inactive”. With CCCCCCOC(=O)CC(CC(=O)OCCCCCC)(OC(=O)CCC)C(=O)OCCCCCC the AC50 was inconclusive: 17.9 µM. In the case of NC(=O)NN=Cc1ccc([N+](=O)[O-])o1, the outcome is reported as “inactive”. In the case of Cc1cccc([N+](=O)[O-])c1C, the AC50 is reported as inconclusive: 25.2 µM. With Cn1cnc([N+](=O)[O-])c1Sc1ncnc2nc[nH]c12 the AC50 was inconclusive: 29.3 µM. With N[C@@H](Cc1cc(I)c(Oc2ccc(O)c(I)c2)c(I)c1)C(=O)O the AC50 was inconclusive: 0.99 µM. With c1ccc2cc3c(ccc4ccccc43)cc2c1 the outcome was “inactive”. For CCCCCCCCN(C)CCCCCCCC, the AC50 was inconclusive: 35.7 µM. For CCC(C)N(C)C(=O)c1cc2ccccc2c(-c2ccccc2Cl)n1 (centres undefined), the AC50 was active: 18.5 µM.
